For some assays here: For at least one entry, the source does not settle the construct or the ends of the probe.
Assays:
thrombin (TB) [1] = test: binding assay; details: PBS (10 mM sodium phosphate, 150 mM NaCl, pH 7.40), 10 uM BSA, room temperature, 2 h; commercial protein; single-stranded DNA
thrombin (TB) [2] = test: competition (QD-FRET reporter strand displacement); details: 2 nM QD-TBA20, DNA12-SM reporter displaced, I605/I665 rises to ~3.1 at 100 nM TB, 500 pM TB detectable; TBA 5' C6-amine, cyclooctyne-clicked to DHLA-PEG600-N3 capped CdSe-ZnS QD; PBS (10 mM sodium phosphate, 150 mM NaCl, pH 7.40), 10 uM BSA, room temperature, 2 h; commercial protein; label: QD (donor) on TBA, Atto647N (acceptor) on DNA12-SM

Row | Sequence | Kd (thrombin (TB) [1]) [nM] | binding result (thrombin (TB) [2])
1 | AGTCCGTGGTAGGGCAGGTTGGGGTGACT [29-mer anti-thrombin aptamer] | 0.5 | –
2 | TTAGTCCGTGGTAGGGCAGGTTGGGGTGACT / CTACCACAGACT [QD-TBA20 pre-hybridized with DNA12-SM reporter] | – | binds
